Laboratory results taken from PMC7190567.
No constants are given. Whether binding was seen depends on the method and setting. Binding seen in cells or lysates may run through a third protein. Binding can be weak; no strength is given.

Target: T1, Caveolin-1 (wild type) (dog) (UniProt P33724)
T1 sequence: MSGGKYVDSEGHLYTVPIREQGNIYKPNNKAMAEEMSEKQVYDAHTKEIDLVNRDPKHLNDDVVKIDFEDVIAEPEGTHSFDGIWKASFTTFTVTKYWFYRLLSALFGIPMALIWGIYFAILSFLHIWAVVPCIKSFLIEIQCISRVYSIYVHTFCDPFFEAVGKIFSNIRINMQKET
Experiment: co-IP; polyclonal anti-CAV1 (2.5 ug) on protein A Dynabeads; 2 mg extract of B16F10 cells expressing E-cadherin (pBATEM2); PBS-Tween 0.1%, 2 h, room temperature; western blot

binding: binds
Substance: E-cadherin (murine) (mouse)
